# In paper PMC7904567:
# Sequences of proteins named here, by UniProt entry; tags and fusion partners are left off. A change or cut given only in a name is not applied to a line headed by its entry.
# UniProt P34067: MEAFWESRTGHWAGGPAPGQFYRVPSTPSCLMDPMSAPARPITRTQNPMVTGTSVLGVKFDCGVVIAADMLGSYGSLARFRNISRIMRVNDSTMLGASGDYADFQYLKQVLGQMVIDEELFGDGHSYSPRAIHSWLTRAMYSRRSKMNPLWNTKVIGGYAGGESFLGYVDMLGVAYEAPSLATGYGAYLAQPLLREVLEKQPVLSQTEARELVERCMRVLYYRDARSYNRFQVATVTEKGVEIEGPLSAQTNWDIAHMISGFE
# Key:
# Assay in all cases: co-IP; lysates of co-transfected HEK293T cells; MicroMACS anti-GFP Microbeads precipitate the EGFP construct; lysis and washes in 50 mM Tris-HCl pH 8.0, 150 mM NaCl, 1% Triton X-100; immunoblot of the eluate
# [1] = target: T1, Bsn5 (aa 2715–2820 of NP_062019.2, 11 kDa) (rat) (UniProt O88778)
# T1 sequence: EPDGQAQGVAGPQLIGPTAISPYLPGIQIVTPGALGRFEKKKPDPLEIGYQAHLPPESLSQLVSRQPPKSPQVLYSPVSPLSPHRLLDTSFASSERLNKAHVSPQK
# [2] = target: T2, EGFP-Bsn10 (aa 2013–2087, 8 kDa) (rat) (UniProt O88778)
# T2 sequence: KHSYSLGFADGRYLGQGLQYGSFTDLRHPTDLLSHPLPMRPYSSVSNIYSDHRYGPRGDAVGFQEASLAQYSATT
# [3] = target: T3, EGFP-Bsn7 (aa 1653–1878, 24 kDa) (rat) (UniProt O88778)
# T3 sequence: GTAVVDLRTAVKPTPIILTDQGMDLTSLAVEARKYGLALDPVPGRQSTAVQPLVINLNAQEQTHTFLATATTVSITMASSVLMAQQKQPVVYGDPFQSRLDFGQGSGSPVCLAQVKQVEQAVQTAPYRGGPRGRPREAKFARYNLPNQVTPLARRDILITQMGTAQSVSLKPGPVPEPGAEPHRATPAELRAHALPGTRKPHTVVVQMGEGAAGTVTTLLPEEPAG
# [4] = target: T4, EGFP-Bsn9 (aa 1653–1963, 33 kDa) (rat) (UniProt O88778)
# T4 sequence: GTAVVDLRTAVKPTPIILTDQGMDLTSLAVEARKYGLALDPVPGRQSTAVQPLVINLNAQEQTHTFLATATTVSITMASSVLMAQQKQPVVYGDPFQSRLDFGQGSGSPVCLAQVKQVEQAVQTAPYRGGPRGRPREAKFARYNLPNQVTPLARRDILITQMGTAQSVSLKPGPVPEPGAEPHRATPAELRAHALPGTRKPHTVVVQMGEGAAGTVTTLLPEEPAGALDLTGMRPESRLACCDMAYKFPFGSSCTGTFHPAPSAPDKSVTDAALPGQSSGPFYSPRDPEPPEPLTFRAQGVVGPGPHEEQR
# [5] = target: T5, Bsn3 (aa 2088–2563) (rat) (UniProt O88778)
# T5 sequence: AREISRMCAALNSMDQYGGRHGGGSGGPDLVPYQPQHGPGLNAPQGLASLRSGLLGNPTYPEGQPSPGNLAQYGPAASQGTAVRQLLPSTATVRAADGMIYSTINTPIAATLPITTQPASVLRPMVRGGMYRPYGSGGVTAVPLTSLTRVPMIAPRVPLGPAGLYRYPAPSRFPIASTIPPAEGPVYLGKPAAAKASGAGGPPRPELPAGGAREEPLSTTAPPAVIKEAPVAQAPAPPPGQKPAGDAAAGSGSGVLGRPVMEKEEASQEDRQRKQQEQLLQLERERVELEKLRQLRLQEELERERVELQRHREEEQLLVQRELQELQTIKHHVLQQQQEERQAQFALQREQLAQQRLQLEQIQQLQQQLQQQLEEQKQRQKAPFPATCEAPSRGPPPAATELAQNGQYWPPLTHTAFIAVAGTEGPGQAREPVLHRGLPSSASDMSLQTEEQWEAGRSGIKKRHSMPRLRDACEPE
# [6] = target: T6, EGFP-Bsn4 (aa 2715–3013, 33 kDa) (rat) (UniProt O88778)
# T6 sequence: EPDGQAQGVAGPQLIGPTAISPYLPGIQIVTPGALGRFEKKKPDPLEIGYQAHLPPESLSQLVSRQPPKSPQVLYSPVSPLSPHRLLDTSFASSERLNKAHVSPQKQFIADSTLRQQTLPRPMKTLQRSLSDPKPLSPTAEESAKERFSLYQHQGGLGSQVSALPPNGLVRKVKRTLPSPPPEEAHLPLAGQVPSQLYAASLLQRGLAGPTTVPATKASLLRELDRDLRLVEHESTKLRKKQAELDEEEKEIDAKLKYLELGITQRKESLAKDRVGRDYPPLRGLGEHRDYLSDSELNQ
# [7] = target: T7, EGFP-Bsn8 (aa 1964–2087, 14 kDa) (rat) (UniProt O88778)
# T7 sequence: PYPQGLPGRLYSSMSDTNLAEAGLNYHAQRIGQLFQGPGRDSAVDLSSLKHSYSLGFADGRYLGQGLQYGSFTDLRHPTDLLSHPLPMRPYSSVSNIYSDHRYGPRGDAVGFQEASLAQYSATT
binding [1],binding [2],binding [3],binding [4],binding [5],binding [6],binding [7],Substance
no binding,binds,binds,binds,no binding,binds,binds,flag-ΔNPSMB4 (aa 46–264) (from UniProt P34067) (domain or fragment)
,,,,,no binding,,flag-ΔNΔC-PSMB4 (aa 45–249) (from UniProt P34067) (domain or fragment)

# Results are given in words; binding and its absence hold for the method and conditions named. In cells and extracts the contact can be indirect. For some assays here: A result given as binding can be weak or reduced; the word gives no strength. For some assays here: Where a sequence is shown, tags or fusion partners need not be part of it.
